From patent US20060204512A1
Results are given in words; binding and its absence hold for the method and conditions named. Some binding calls cover weakened binding; strength is not graded here. For part of these data: Sequences can lack the tags named with a protein. Values belong to the binder of their own block, whether it stands above or below them.

By UniProt entry, the sequences of proteins in these tests, tags left out. Where a name states a change or a piece, a line headed by the entry shows the natural chain unless it says otherwise. Residues count along the entry.
UniProt P52799: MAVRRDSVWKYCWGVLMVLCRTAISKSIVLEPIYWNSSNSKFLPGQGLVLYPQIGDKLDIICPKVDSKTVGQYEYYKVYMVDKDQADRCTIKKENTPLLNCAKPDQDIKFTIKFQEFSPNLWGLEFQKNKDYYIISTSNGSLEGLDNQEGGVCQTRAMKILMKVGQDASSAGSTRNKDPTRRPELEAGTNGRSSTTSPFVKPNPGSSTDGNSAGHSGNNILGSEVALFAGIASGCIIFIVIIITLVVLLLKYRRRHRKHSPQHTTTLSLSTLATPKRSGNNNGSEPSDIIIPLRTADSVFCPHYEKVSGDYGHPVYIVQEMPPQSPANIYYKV
ephrin B2 in Kaposi's sarcoma biopsy tumor cells: residues 28-333 of P52799
B2EC-AP reagent (protein fusion of Ephrin B2 ectodomain with placental alkaline phosphatase): residues 28-229 of P52799

Columns and labels:
[1] = biological target: B2EC-AP reagent (protein fusion of Ephrin B2 ectodomain with placental alkaline phosphatase) (UniProt P52799); assay: Ephrin B2-AP binding to B4 proteins immobilized on Ni2+ resin or nitrocellulose membrane
[2] = biological target: ephrin B2 in Kaposi's sarcoma biopsy tumor cells (UniProt P52799); assay: staining of Kaposi's sarcoma biopsy sections
[3] = biological target: ephrin B2 in Kaposi's sarcoma biopsy tumor cells (UniProt P52799); assay: staining of Kaposi's sarcoma biopsy sections, FITC-labeled anti-human Fc antibody
[4] = biological target: ephrin B2 in Kaposi's sarcoma biopsy tumor cells (UniProt P52799); assay: staining of Kaposi's sarcoma biopsy section
[5] = biological target: B2EC-AP reagent (protein fusion of Ephrin B2 ectodomain with placental alkaline phosphatase) (UniProt P52799); assay: standard EphrinB2 binding assay of SP column fractions
[6] = biological target: B2EC-AP reagent (protein fusion of Ephrin B2 ectodomain with placental alkaline phosphatase) (UniProt P52799); assay: magnetic beads, B2-AP, pnPP, after incubation in mouse serum at 37 C
[7] = biological target: B2EC-AP reagent (protein fusion of Ephrin B2 ectodomain with placental alkaline phosphatase) (UniProt P52799); assay: biochemical assays; B4ECv3 on Ni-NTA-agarose, B2-AP 50 nM, PNPP colour

binding [2]: binds
binding [3]: binds
B2: EphB4/Fc fusion protein (Fc fusion, UniProt P54760 16-539, looked up, not shown: a dimerising Fc or GST)
chain: LEETLLNTKLETADLKWVTFPQVDGQWEELSGLDEEQHSVRTYEVCDVQRAPGQAHWLRTGWVPRRGAVHVYATLRFTMLECLSLPRAGRSCKETFTVFYYESDADTATALTPAWMENPYIKVDTVAAEHLTRKRPGAEATGKVNVKTLRLGPLSKAGFYLAFQDQGACMALLSLHLFYKKCAQLTVNLTRFPETVPRELVVPVAGSCVVDAVPAPGPSPSLYCREDGQWAEQPVTGCSCAPGFEAAEGNTKCRACAQGTFKPLSGEGSCQPCPANSHSNTIGSAVCQCRVGYFRARTDPRGAPCTTPPSAPRSVVSRLNGSSLHLEWSAPLESGGREDLTYALRCRECRPGGSCAPCGGDLTFDPGPRDLVEPWVVVRGLRPDFTYTFEVTALNGVSSLATGPVPFEPVNVTTDREVPPAVSDIRVTRSSPSSLSLAWAVPRAPSGAVLDYEVKYHEKGAEGPSSVRFLKTSENRAELRGLKRGASYLVQVRARSEAGYGPFGQEHHSQTQLDESEGWREQLA

binding [5]: binds
binding [6]: binds
B4: biotinylated soluble EphB4 ectodomain protein (sB4) (receptor, UniProt P54760 16-539, looked up)
chain: LEETLLNTKLETADLKWVTFPQVDGQWEELSGLDEEQHSVRTYEVCDVQRAPGQAHWLRTGWVPRRGAVHVYATLRFTMLECLSLPRAGRSCKETFTVFYYESDADTATALTPAWMENPYIKVDTVAAEHLTRKRPGAEATGKVNVKTLRLGPLSKAGFYLAFQDQGACMALLSLHLFYKKCAQLTVNLTRFPETVPRELVVPVAGSCVVDAVPAPGPSPSLYCREDGQWAEQPVTGCSCAPGFEAAEGNTKCRACAQGTFKPLSGEGSCQPCPANSHSNTIGSAVCQCRVGYFRARTDPRGAPCTTPPSAPRSVVSRLNGSSLHLEWSAPLESGGREDLTYALRCRECRPGGSCAPCGGDLTFDPGPRDLVEPWVVVRGLRPDFTYTFEVTALNGVSSLATGPVPFEPVNVTTDREVPPAVSDIRVTRSSPSSLSLAWAVPRAPSGAVLDYEVKYHEKGAEGPSSVRFLKTSENRAELRGLKRGASYLVQVRARSEAGYGPFGQEHHSQTQLDESEGWREQLA
modifications: biotin (EZ-Link Biotin Hydrazide) on periodate-oxidised carbohydrate chains

Continued, binder first:

B1: B4EC-GC (Globular domain+Cys-rich domain of EphB4, 6xHis tagged) (receptor)
chain: LEETLLNTKLETADLKWVTFPQVDGQWEELSGLDEEQHSVRTYEVCEVQRAPGQAHWLRTGWVPRRGAVHVYATLRFTMLECLSLPRAGRSCKETFTVFYYESDADTATALTPAWMENPYIKVDTVAAEHLTRKRPGAEATGKVNVKTLRLGPLSKAGFYLAFQDQGACMALLSLHLFYKKCAQLTVNLTRFPETVPRELVVPVAGSCVVDAVPAPGPSPSLYCREDGQWAEQPVTGCSCAPGFEAAEGNTKCRACAQGTFKPLSGEGSCQPCPANSHSNTIGSAVCQCRVGYFRARTDPRGAPCTTPPSAHHHHHH
binding [1]: binds

B3: B4EC-AP reagent (protein fusion of EphB4 ectodomain with placental alkaline phosphatase) (receptor, UniProt P54760 16-539, looked up, not shown: large carriers)
chain: LEETLLNTKLETADLKWVTFPQVDGQWEELSGLDEEQHSVRTYEVCDVQRAPGQAHWLRTGWVPRRGAVHVYATLRFTMLECLSLPRAGRSCKETFTVFYYESDADTATALTPAWMENPYIKVDTVAAEHLTRKRPGAEATGKVNVKTLRLGPLSKAGFYLAFQDQGACMALLSLHLFYKKCAQLTVNLTRFPETVPRELVVPVAGSCVVDAVPAPGPSPSLYCREDGQWAEQPVTGCSCAPGFEAAEGNTKCRACAQGTFKPLSGEGSCQPCPANSHSNTIGSAVCQCRVGYFRARTDPRGAPCTTPPSAPRSVVSRLNGSSLHLEWSAPLESGGREDLTYALRCRECRPGGSCAPCGGDLTFDPGPRDLVEPWVVVRGLRPDFTYTFEVTALNGVSSLATGPVPFEPVNVTTDREVPPAVSDIRVTRSSPSSLSLAWAVPRAPSGAVLDYEVKYHEKGAEGPSSVRFLKTSENRAELRGLKRGASYLVQVRARSEAGYGPFGQEHHSQTQLDESEGWREQLA
binding [4]: binds

B5: B4ECv3 protein (receptor)
chain: LEETLLNTKLETADLKWVTFPQVDGQWEELSGLDEEQHSVRTYEVCEVQRAPGQAHWLRTGWVPRRGAVHVYATLRFTMLECLSLPRAGRSCKETFTVFYYESDADTATALTPAWMENPYIKVDTVAAEHLTRKRPGAEATGKVNVKTLRLGPLSKAGFYLAFQDQGACMALLSLHLFYKKCAQLTVNLTRFPETVPRELVVPVAGSCVVDAVPAPGPSPSLYCREDGQWAEQPVTGCSCAPGFEAAEGNTKCRACAQGTFKPLSGEGSCQPCPANSHSNTIGSAVCQCRVGYFRARTDPRGAPCTTPPSAPRSVVSRLNGSSLHLEWSAPLESGGREDLTYALRCRECRPGGSCAPCGGDLTFDPGPRDLVEPWVVVRGLRPDFTYTFEVTALNGVSSLATGPVPFEPVNVTTDREVPPAVSDIRVTRSSPSSLSLAWAVPRAPSGAWLDYEVKYHEKGAEGPSSVRFLKTSENRAELRGLKRGASYLVQVRARSEAGYGPFGQEHHSQTQLDESEGWREQGSKRAILQIEGKPIPNPLLGLDSTRTGHHHHHH
binding [7]: binds

B6: B4-GCF2 (complete ectopic part of EphB4, C-terminally 6xHis tagged) (receptor)
chain: LEETLLNTKLETADLKWVTFPQVDGQWEELSGLDEEQHSVRTYEVCEVQRAPGQAHWLRTGWVPRRGAVHVYATLRFTMLECLSLPRAGRSCKETFTVFYYESDADTATALTPAWMENPYIKVDTVAAEHLTRKRPGAEATGKVNVKTLRLGPLSKAGFYLAFQDQGACMALLSLHLFYKKCAQLTVNLTRFPETVPRELVVPVAGSCVVDAVPAPGPSPSLYCREDGQWAEQPVTGCSCAPGFEAAEGNTKCRACAQGTFKPLSGEGSCQPCPANSHSNTIGSAVCQCRVGYFRARTDPRGAPCTTPPSAPRSVVSRLNGSSLHLEWSAPLESGGREDLTYALRCRECRPGGSCAPCGGDLTFDPGPRDLVEPWVVVRGLRPDFTYTFEVTALNGVSSLATGPVPFEPVNVTTDREVPPAVSDIRVTRSSPSSLSLAWAVPRAPSGAWLDYEVKYHEKGAEGPSSVRFLKTSENRAELRGLKRGASYLVQVRARSEAGYGPFGQEHHSQTQLDESEGWREQGSKRAILQIEGKPIPNPLLGLDSTRTGHHHHH
binding [1]: binds

B7: GCF1 (globular, Cys-rich and the first FNIII domain of EphB4, 6xHis tagged) (receptor)
chain: LEETLLNTKLETADLKWVTFPQVDGQWEELSGLDEEQHSVRTYEVCEVQRAPGQAHWLRTGWVPRRGAVHVYATLRFTMLECLSLPRAGRSCKETFTVFYYESDADTATALTPAWMENPYIKVDTVAAEHLTRKRPGAEATGKVNVKTLRLGPLSKAGFYLAFQDQGACMALLSLHLFYKKCAQLTVNLTRFPETVPRELVVPVAGSCVVDAVPAPGPSPSLYCREDGQWAEQPVTGCSCAPGFAEGNTKCRACAQGTFKPLSGEGSCQPCPANSHSNTIGSAVCQCRVGYFRARTDPRGAPCTTPPSAPRSVVSRLNGSSLHLEWSAPLESGGREDLTYALRCRECRPGGSCAPCGGDLTFDPGPRDLVEPWVVVRGLRPDFTYTFEVTALNGVSSLATGPVPFEPVNVHHHHHH
binding [1]: binds
